In the supplement of paper PMC4840960:
± gives the standard deviation of the averaged measurements. This is one part of the list. Part of the spread comes from offsets between plates or batches.

Test system: E18 rat cortical neuron-glia co-culture
Assay: total nuclei (DAPI) / Olig2+ nuclei (ratio); higher = more depletion of OPC/OL lineage cells
Conditions: treatment time: 8 days (DIV5-DIV13)

Structure (SMILES)	total nuclei (1 µM)	total nuclei (5 µM)
Nc1nc2c(ncn2COC(CO)CO)c(=O)[nH]1 [Ganciclovir]	2.38	3.1
CNCC[C@H](Oc1cccc2ccccc12)c1cccs1 [Duloxetine]	4.21 ± 1.8	5.4 ± 1.1
OC[C@H]1O[C@@H](Oc2cc(O)cc(/C=C/c3ccc(O)cc3)c2)[C@H](O)[C@@H](O)[C@@H]1O [Polydatin]	3.42	5.1
N=C(N)NC(=O)c1nc(Cl)c(N)nc1N [Amiloride]	3.52	5
CCN1CCN(C(=O)N[C@@H](C(=O)N[C@@H]2C(=O)N3[C@@H]2SC(C)(C)[C@@H]3C(=O)O)c2ccccc2)C(=O)C1=O [Piperacillin]	3.8	4
c1ccc2[nH]c(-c3cscn3)nc2c1 [Thiabendazole]	2.95	3.1
CCN1CCCC1CNC(=O)c1cc(S(N)(=O)=O)ccc1OC (centres undefined) [Sulpiride]	3.5	4
COc1cc(C[C@@H](CO)[C@H](CO)Cc2ccc(O)c(OC)c2)ccc1O [Secoisolariciresinol]	2.64	2.7
CC1=C(CC(=O)O)c2cc(F)ccc2/C1=C\c1ccc([S+](C)[O-])cc1 (centres undefined) [Sulindac]	2.77	2.8
CC1(C)S[C@@H]2[C@H](/N=C/N3CCCCCC3)C(=O)N2[C@H]1C(=O)O [Amdinocillin]	4.1	5.3
CNNCc1ccc(C(=O)NC(C)C)cc1 [Procarbazine]	3.2	3.1
O=C(O)CCNC(=O)c1ccc(/N=N/c2ccc(O)c(C(=O)O)c2)cc1 [Balsalazide]	2.74	2.9

Two of the compounds above, with bars between the fields.
Structure (SMILES) | total nuclei (1 µM) | total nuclei (5 µM)
CNNCc1ccc(C(=O)NC(C)C)cc1 [Procarbazine] | 3.2 | 3.1
O=C(O)CCNC(=O)c1ccc(/N=N/c2ccc(O)c(C(=O)O)c2)cc1 [Balsalazide] | 2.74 | 2.9
